The list shows a part of the results. Hit calls seldom repeat between salt and free forms of one compound.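 Kinases, fused to nanoluciferase, were expressed in K562 cells; luminescence was measured every 4 h from 2 to 18 h as percent of control (DMSO = 100%, positive control = 0%). A time point is decreased if signal falls significantly (2 sigma). Hits were called by the authors by a rule that is not shown; the count of time points alone does not decide it.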
Key:
Details in all cases: K562; 2-18 h
STK38 = STK38 (UniProt Q15208); experiment: kinase-Nluc reporter destabilization hit call (1 = scored as downregulated) (binary); higher = compound decreases kinase abundance
SYK = SYK (UniProt P43405); experiment: as above
TEC = TEC (UniProt P42680); experiment: as above
TYK2 = TYK2 (UniProt P29597); experiment: as above
ULK3 = ULK3 (UniProt Q6PHR2); experiment: as above
YES1 = YES1 (UniProt P07947); experiment: as above
ZAK = ZAK (UniProt Q9NYL2); experiment: as above
ZAP70 = ZAP70 (UniProt P43403); experiment: as above
ABL1 = ABL1 (UniProt P00519); experiment: number of time points (of 5) at which kinase-Nluc abundance scored as decreased, DMSO-normalised (count); higher = more persistent destabilization
AKT1 = AKT1 (UniProt P31749); experiment: as above
ALK = ALK (UniProt Q9UM73); experiment: as above
ARAF = ARAF (UniProt P10398); experiment: as above
AURKA = AURKA (UniProt O14965); experiment: as above
AURKB = AURKB (UniProt Q96GD4); experiment: as above
AURKC = AURKC (UniProt Q9UQB9); experiment: as above
BLK = BLK (UniProt P51451); experiment: as above
BMX = BMX (UniProt P51813); experiment: as above
BRAF = BRAF (UniProt P15056); experiment: as above
BRAF_V600E = experiment: as above
BTK = BTK (UniProt Q06187); experiment: as above

Protein sequences, listed by entry. Tags and fused reporters are not part of them. Lines headed by an entry give the natural chain unless they say otherwise; changes in a name come on top.
UniProt P42680: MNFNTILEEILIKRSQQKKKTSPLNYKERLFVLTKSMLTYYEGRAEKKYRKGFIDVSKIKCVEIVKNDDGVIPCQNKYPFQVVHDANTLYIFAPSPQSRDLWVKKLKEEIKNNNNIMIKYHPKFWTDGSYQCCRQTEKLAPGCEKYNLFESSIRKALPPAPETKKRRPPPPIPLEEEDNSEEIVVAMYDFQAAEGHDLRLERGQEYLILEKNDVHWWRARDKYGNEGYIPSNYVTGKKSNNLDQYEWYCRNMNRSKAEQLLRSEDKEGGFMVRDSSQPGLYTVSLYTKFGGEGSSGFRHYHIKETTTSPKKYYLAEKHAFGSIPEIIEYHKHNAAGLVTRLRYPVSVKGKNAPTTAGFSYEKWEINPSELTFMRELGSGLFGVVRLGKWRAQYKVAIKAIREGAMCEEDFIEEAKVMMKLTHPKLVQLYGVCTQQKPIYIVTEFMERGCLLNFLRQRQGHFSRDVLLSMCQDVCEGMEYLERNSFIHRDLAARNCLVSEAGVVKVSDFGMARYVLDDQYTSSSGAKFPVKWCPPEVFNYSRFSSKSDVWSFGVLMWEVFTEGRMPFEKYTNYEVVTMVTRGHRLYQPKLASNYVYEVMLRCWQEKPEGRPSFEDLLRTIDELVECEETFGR
UniProt P07947, whole entry, looked up: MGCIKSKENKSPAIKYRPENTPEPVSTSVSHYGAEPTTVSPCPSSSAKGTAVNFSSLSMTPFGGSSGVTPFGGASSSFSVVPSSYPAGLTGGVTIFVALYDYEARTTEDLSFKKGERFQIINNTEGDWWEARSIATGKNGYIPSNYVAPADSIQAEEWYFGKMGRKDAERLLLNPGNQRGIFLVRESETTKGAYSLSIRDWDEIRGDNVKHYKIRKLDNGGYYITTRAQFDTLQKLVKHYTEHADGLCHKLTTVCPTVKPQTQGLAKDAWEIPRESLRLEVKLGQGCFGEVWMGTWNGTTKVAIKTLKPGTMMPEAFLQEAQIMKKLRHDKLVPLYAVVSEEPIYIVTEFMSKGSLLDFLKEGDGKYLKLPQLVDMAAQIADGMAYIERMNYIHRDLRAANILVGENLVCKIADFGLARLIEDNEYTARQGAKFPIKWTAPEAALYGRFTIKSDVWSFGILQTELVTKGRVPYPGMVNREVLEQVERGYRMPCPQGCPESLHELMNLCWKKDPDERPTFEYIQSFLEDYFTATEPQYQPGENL
UniProt P43403: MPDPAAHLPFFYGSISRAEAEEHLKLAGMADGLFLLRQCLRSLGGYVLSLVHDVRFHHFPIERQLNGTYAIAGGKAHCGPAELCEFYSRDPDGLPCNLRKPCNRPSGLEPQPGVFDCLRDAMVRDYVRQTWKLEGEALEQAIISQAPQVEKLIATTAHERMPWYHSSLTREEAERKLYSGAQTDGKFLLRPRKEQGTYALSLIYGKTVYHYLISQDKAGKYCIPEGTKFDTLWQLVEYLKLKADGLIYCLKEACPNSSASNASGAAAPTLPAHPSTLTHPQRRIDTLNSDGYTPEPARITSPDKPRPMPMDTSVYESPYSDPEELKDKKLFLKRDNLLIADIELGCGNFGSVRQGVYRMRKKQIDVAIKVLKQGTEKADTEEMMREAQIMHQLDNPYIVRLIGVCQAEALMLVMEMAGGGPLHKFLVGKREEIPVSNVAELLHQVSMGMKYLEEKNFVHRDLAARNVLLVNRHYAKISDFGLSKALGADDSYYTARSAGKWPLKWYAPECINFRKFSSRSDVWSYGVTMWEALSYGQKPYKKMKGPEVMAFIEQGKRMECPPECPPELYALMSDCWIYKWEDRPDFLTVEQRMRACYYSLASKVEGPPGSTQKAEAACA
UniProt Q9UM73: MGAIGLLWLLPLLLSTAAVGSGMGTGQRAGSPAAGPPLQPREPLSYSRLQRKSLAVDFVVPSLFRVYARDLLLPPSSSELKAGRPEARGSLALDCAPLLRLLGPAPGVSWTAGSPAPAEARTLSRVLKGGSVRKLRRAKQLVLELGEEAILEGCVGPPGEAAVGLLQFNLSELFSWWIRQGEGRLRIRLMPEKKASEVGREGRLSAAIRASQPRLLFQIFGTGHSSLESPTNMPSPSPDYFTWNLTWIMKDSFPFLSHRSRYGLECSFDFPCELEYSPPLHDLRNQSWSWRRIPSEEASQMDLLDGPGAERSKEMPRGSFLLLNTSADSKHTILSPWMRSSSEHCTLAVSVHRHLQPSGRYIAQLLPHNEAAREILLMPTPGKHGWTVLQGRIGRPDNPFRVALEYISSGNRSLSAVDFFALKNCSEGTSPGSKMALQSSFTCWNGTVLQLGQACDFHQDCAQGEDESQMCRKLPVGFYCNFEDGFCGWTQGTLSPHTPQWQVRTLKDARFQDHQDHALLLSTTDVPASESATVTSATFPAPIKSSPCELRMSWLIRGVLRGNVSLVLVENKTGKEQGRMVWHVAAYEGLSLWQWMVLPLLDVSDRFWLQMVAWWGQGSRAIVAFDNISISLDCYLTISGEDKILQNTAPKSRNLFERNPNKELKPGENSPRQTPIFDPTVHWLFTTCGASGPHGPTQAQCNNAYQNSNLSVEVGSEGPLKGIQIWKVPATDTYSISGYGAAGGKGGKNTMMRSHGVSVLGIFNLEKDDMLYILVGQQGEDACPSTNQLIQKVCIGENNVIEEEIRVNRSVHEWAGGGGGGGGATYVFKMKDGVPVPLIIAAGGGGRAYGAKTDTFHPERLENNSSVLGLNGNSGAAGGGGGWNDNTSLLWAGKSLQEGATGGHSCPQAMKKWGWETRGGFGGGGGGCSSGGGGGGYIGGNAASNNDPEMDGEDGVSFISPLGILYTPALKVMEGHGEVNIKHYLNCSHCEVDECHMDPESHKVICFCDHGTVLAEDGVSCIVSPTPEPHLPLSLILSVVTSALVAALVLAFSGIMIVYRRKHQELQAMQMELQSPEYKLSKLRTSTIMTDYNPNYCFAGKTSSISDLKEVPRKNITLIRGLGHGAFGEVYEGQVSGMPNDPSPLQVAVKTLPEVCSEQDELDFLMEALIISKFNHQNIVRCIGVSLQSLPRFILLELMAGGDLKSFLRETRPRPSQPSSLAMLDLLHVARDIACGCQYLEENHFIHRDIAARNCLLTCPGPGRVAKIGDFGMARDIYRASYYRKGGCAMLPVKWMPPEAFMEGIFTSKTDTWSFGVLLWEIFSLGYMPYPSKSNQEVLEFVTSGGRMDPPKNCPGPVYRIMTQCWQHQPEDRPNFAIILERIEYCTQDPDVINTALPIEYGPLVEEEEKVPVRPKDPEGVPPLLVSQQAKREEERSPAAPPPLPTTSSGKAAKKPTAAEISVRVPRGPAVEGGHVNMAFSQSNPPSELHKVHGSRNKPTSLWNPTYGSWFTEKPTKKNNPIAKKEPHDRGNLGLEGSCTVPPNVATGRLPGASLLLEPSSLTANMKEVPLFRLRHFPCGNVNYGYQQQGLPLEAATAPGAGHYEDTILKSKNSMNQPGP
UniProt P10398: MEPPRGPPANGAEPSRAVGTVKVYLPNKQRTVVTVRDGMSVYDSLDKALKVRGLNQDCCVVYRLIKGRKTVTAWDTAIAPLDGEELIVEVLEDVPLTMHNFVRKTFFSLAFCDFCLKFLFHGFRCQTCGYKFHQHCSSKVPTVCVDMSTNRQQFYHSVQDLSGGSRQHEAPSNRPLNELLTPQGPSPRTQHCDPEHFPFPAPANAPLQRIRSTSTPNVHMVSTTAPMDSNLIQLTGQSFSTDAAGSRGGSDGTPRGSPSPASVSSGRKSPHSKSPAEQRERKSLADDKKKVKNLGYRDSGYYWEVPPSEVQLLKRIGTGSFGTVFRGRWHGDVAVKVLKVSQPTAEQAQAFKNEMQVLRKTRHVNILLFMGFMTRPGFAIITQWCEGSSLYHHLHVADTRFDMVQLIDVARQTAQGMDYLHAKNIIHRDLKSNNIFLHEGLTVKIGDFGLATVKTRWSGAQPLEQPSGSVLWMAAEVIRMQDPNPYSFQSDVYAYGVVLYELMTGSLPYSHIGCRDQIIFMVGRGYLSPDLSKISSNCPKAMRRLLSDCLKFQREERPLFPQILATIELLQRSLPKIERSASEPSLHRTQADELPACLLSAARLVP
UniProt O14965: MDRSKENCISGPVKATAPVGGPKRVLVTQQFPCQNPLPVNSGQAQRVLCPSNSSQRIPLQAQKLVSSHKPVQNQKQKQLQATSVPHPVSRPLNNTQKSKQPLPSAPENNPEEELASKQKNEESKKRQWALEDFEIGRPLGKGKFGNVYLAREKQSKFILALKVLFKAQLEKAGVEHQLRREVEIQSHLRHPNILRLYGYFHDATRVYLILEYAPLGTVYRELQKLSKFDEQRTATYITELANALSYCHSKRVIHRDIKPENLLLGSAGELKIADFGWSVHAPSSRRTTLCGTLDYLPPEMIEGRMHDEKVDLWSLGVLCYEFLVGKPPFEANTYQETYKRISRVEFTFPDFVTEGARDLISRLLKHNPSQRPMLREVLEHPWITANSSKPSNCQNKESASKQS
UniProt Q96GD4, whole entry: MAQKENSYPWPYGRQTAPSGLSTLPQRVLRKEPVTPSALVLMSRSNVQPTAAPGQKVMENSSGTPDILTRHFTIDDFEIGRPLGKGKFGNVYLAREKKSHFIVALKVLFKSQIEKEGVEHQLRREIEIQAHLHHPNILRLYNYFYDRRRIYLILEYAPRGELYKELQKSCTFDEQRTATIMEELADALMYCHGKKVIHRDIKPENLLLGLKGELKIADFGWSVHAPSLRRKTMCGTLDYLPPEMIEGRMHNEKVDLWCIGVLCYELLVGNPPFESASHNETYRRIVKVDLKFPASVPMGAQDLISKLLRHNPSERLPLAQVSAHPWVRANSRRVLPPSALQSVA
UniProt Q9UQB9: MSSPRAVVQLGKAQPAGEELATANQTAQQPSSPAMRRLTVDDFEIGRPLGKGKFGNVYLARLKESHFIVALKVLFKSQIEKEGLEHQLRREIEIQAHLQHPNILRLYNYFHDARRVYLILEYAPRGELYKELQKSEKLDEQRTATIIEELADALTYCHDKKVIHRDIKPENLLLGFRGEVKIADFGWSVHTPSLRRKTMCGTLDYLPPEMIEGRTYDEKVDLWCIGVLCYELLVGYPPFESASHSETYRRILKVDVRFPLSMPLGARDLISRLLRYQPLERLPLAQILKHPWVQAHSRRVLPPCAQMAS
UniProt P51451: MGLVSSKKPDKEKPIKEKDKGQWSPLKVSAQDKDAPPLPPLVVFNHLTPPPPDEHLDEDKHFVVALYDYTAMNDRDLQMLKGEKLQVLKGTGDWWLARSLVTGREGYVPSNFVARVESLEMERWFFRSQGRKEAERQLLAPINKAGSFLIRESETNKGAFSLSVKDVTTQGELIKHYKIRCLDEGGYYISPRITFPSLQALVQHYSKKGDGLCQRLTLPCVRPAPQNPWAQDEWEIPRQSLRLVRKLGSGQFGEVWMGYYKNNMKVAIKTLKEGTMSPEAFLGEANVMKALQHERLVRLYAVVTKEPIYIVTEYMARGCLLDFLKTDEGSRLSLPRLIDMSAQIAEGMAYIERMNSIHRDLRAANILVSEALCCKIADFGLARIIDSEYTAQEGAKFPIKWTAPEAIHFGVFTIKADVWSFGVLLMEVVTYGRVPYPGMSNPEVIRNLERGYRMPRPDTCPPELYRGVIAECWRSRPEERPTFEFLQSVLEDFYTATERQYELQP
UniProt P51813: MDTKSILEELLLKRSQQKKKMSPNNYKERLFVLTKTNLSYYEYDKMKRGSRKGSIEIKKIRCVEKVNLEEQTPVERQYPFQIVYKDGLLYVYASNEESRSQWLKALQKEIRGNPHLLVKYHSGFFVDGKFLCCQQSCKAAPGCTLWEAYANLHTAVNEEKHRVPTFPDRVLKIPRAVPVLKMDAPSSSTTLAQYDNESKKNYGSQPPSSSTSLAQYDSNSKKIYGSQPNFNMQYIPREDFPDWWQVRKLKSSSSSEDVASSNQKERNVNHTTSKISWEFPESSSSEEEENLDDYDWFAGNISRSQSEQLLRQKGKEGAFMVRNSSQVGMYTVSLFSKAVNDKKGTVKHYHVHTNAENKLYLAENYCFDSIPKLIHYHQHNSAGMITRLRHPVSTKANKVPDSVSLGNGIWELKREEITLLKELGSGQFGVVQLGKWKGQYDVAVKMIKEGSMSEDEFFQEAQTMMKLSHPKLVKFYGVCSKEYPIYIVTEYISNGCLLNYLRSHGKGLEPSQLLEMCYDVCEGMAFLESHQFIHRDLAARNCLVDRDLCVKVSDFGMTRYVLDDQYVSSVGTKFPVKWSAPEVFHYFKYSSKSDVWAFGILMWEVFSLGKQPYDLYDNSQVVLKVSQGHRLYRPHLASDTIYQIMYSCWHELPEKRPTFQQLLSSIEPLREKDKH

Row | SMILES | kinase-Nluc reporter destabilization hit call (STK38) | kinase-Nluc reporter destabilization hit call (SYK) | kinase-Nluc reporter destabilization hit call (TEC) | kinase-Nluc reporter destabilization hit call (TYK2) | kinase-Nluc reporter destabilization hit call (ULK3) | kinase-Nluc reporter destabilization hit call (YES1) | kinase-Nluc reporter destabilization hit call (ZAK) | kinase-Nluc reporter destabilization hit call (ZAP70) | number of time points (ABL1) | number of time points (AKT1) | number of time points (ALK) | number of time points (ARAF) | number of time points (AURKA) | number of time points (AURKB) | number of time points (AURKC) | number of time points (BLK) | number of time points (BMX) | number of time points (BRAF) | number of time points (BRAF_V600E) | number of time points (BTK)
1 | COc1cc2nc(C)nc(N[C@H](C)c3cc(N)cc(C(F)(F)F)c3)c2cc1O[C@H]1CCOC1 (10 µM) | inactive: 0 | inactive: 0 | inactive: 0 | inactive: 0 | inactive: 0 | inactive: 0 | inactive: 0 | inactive: 0 | 2 | 0 | 0 | 0 | 0 | 0 | 0 | 0 | 0 | 0 | 0 | 0
2 | COc1cc2c(Nc3ccc(Br)cc3F)ncnc2cc1OCCn1ccnn1 (10 µM) | inactive: 0 | inactive: 0 | inactive: 0 | inactive: 0 | inactive: 0 | inactive: 0 | inactive: 0 | inactive: 0 | 0 | 0 | 0 | 0 | 0 | 0 | 0 | 0 | 0 | 0 | 0 | 0
3 | COc1cc(CCc2cc(-c3nc4ccc(N5CCN(C)CC5)cc4[nH]3)n[nH]2)cc(OC)c1 (10 µM) | inactive: 0 | inactive: 0 | inactive: 0 | inactive: 0 | inactive: 0 | inactive: 0 | inactive: 0 | inactive: 0 | 4 | 0 | 0 | 0 | 0 | 0 | 0 | 1 | 1 | 0 |  | 0
4 | CNC(=O)c1ccccc1Nc1nc(Nc2ccc(N3CCOCC3)cc2OC)ncc1Cl (2.5 µM) | inactive: 0 | inactive: 0 | inactive: 0 | inactive: 0 | inactive: 0 | inactive: 0 | inactive: 0 | inactive: 0 | 0 | 0 | 0 | 0 | 0 | 0 | 0 | 0 | 0 | 0 | 0 | 0
5 | Cc1nc(-c2cnc(NC(C)C)n(C)c2=O)ccc1Oc1ccnc(-c2cnn(C)c2)c1 (2.5 µM) | inactive: 0 | inactive: 0 | inactive: 0 | inactive: 0 | inactive: 0 | inactive: 0 | inactive: 0 | inactive: 0 | 0 | 0 | 0 | 0 | 0 | 0 | 0 | 0 | 0 | 0 | 1 | 0
6 | O=C(Nc1cc(C(F)(F)F)ccc1N1CCN(Cc2ccccn2)CC1)c1ccc(-c2ccncc2)o1 (10 µM) | inactive: 0 | inactive: 0 | inactive: 0 | inactive: 0 | inactive: 0 | inactive: 0 | inactive: 0 | inactive: 0 | 0 | 0 | 0 | 0 | 0 | 0 | 0 | 3 | 0 | 2 |  | 0
7 | O=C(O)CCNC(=O)c1ccc(/N=N/c2ccc(O)c(C(=O)O)c2)cc1 [Balsalazide] (10 µM) | inactive: 0 | inactive: 0 | inactive: 0 | inactive: 0 | inactive: 0 | inactive: 0 | inactive: 0 | inactive: 0 | 0 | 0 | 0 | 0 | 0 | 0 | 0 | 0 | 0 | 0 | 0 | 0
8 | COc1cc(C(=O)NC2CCN(C)CC2)ccc1Nc1ncc2c(n1)N(C1CCCC1)CC(F)(F)C(=O)N2C (10 µM) | inactive: 0 | inactive: 0 | inactive: 0 | inactive: 0 | inactive: 0 | inactive: 0 | inactive: 0 | inactive: 0 | 0 | 0 | 0 | 0 | 0 | 0 | 0 | 0 | 0 | 0 |  | 0
9 | Cc1c[nH]c2ccccc12 [Skatole] (10 µM) | inactive: 0 | inactive: 0 | inactive: 0 | inactive: 0 | inactive: 0 | inactive: 0 | inactive: 0 | inactive: 0 | 0 | 0 | 0 | 0 | 0 | 0 | 0 | 0 | 0 | 0 | 0 | 0
10 | O=c1oc2c(O)c(O)cc3c(=O)oc4c(O)c(O)cc1c4c23 [Ellagic acid] (10 µM) | inactive: 0 | inactive: 0 | inactive: 0 | inactive: 0 | inactive: 0 | inactive: 0 | inactive: 0 | inactive: 0 | 0 | 0 | 0 | 0 | 0 | 0 | 0 | 0 | 0 | 0 | 0 | 0
11 | C=CC(=O)N[C@H]1COC[C@H]1Nc1ncc2cc(-c3c(Cl)c(OC)cc(OC)c3Cl)c(=O)n(C)c2n1 (10 µM) | inactive: 0 | inactive: 0 | inactive: 0 | inactive: 0 | inactive: 0 | inactive: 0 | inactive: 0 | inactive: 0 | 0 | 0 | 0 | 0 | 0 | 0 | 0 | 0 | 0 | 0 | 0 | 0
12 | C[C@H](NC(=O)/C(C#N)=C/c1cccc(Br)n1)c1ccccc1 (2.5 µM) | inactive: 0 | inactive: 0 | inactive: 0 | inactive: 0 | inactive: 0 | inactive: 0 | inactive: 0 | inactive: 0 | 0 | 0 | 0 | 0 | 3 | 4 | 0 | 0 | 0 | 0 | 0 | 0
13 | COc1ccc(Oc2cc(NCCC(F)(F)F)c3ncc(-c4ccc(C(=O)NC5CC5)c(C)c4)n3n2)c(F)c1F (2.5 µM) | inactive: 0 | inactive: 0 | inactive: 0 | inactive: 0 | inactive: 0 | inactive: 0 | inactive: 0 | inactive: 0 | 0 | 0 | 0 | 0 | 0 | 0 | 0 | 0 | 0 | 0 |  | 0
14 | O=C(NOC[C@H](O)CO)c1ccc(F)c(F)c1Nc1ccc(I)cc1F (2.5 µM) | inactive: 0 | inactive: 0 | inactive: 0 | inactive: 0 | inactive: 0 | inactive: 0 | inactive: 0 | inactive: 0 | 2 | 0 | 0 | 0 | 1 | 0 | 0 | 0 | 0 | 0 |  | 0
15 | CCOc1cc2ncc(-c3cc(N)nc(F)c3)n2cc1S(=O)(=O)C(C)(C)C (10 µM) | inactive: 0 | inactive: 0 | inactive: 0 | inactive: 0 | inactive: 0 | inactive: 0 | inactive: 0 | inactive: 0 | 0 | 0 | 0 | 0 | 0 | 0 | 0 | 0 | 0 | 0 |  | 0
16 | COc1ccc(F)c(F)c1C(=O)c1cnc(NC2CCN(S(C)(=O)=O)CC2)nc1N (2.5 µM) | inactive: 0 | inactive: 0 | inactive: 0 | inactive: 0 | inactive: 0 | inactive: 0 | inactive: 0 | inactive: 0 | 0 | 0 | 3 | 0 | 3 | 2 | 0 | 2 | 2 | 0 | 3 | 1
17 | CN(C)Cc1ccc(-c2cnn3c(-c4cccc(NC(=O)c5cccc(C(F)(F)F)c5)c4)ccnc23)cc1 (2.5 µM) | inactive: 0 | inactive: 0 | inactive: 0 | inactive: 0 | inactive: 0 | inactive: 0 | inactive: 0 | inactive: 0 | 0 | 0 | 0 | 0 | 0 | 0 | 0 | 0 | 0 |  | 0 | 0

Shown with tabs: part of the list above
Row	SMILES	kinase-Nluc reporter destabilization hit call (STK38)	kinase-Nluc reporter destabilization hit call (SYK)	kinase-Nluc reporter destabilization hit call (TEC)	kinase-Nluc reporter destabilization hit call (TYK2)	kinase-Nluc reporter destabilization hit call (ULK3)	kinase-Nluc reporter destabilization hit call (YES1)	kinase-Nluc reporter destabilization hit call (ZAK)	kinase-Nluc reporter destabilization hit call (ZAP70)	number of time points (ABL1)	number of time points (AKT1)	number of time points (ALK)	number of time points (ARAF)	number of time points (AURKA)	number of time points (AURKB)	number of time points (AURKC)	number of time points (BLK)	number of time points (BMX)	number of time points (BRAF)	number of time points (BRAF_V600E)	number of time points (BTK)
4	CNC(=O)c1ccccc1Nc1nc(Nc2ccc(N3CCOCC3)cc2OC)ncc1Cl (2.5 µM)	inactive: 0	inactive: 0	inactive: 0	inactive: 0	inactive: 0	inactive: 0	inactive: 0	inactive: 0	0	0	0	0	0	0	0	0	0	0	0	0
5	Cc1nc(-c2cnc(NC(C)C)n(C)c2=O)ccc1Oc1ccnc(-c2cnn(C)c2)c1 (2.5 µM)	inactive: 0	inactive: 0	inactive: 0	inactive: 0	inactive: 0	inactive: 0	inactive: 0	inactive: 0	0	0	0	0	0	0	0	0	0	0	1	0
